Source: PubChem BioAssay AID1259405 (NCATS, 2018)
Assay: 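Silenced genes that increase secreted GFP made by CHO cells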 (primary screen). Cells: Chinese hamster CHO-K1 ovary cells with stable secreted eGFP expression. Reagent: single siRNA against mouse genes, 0.8 pmol siRNA per well (2 µl of 400 nM stock). Timing: 3 days. Detection: 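Percent of the per-plate non-targeting control median for intracellular GFP per well by laser scanning cytometry and for cell viability by ATP luminescence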. Reading the numbers: GFP, % of control: higher = more GFP per well, higher productivity; viability (ATP), % of control: higher = more viable cells (more ATP). Rule for the call: 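Called active when intracellular GFP, relative to negative control, is at or above 120%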.
Here is one part, drawn at random, of about 50,000 deposited reagents. About 4,000 of all reagents (8%) count as active. 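Mouse siRNA library applied to hamster cells; one well for each siRNA.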 Reagents against one gene are numbered here. No sequences are given here.

Target gene,reagent,"GFP, % of control","viability (ATP), % of control",activity call
Kazn (GeneID 71529),1,32.7,47.1,inactive
Kazn (GeneID 71529),2,69.2,86.7,inactive
Kazn (GeneID 71529),3,90.2,89,inactive
Tnr (GeneID 21960),1,62.8,86.6,inactive
Tnr (GeneID 21960),2,117,112,inactive
Erdr1x (GeneID 170942),1,69.4,74.4,inactive
Erdr1x (GeneID 170942),2,82.4,68.6,inactive
Erdr1x (GeneID 170942),3,87.2,55.9,inactive
Amt (GeneID 434437),1,81.7,36.4,inactive
Amt (GeneID 434437),2,104,75.2,inactive
Amt (GeneID 434437),3,85.9,94.1,inactive
Aldh1a7 (GeneID 26358),1,73,71.5,inactive
Aldh1a7 (GeneID 26358),2,66.4,82.8,inactive
Aldh1a7 (GeneID 26358),3,118,113,inactive
Stil (GeneID 20460),1,73,74.4,inactive
Stil (GeneID 20460),2,38.1,55.6,inactive
Stil (GeneID 20460),3,62.8,71.7,inactive
Rims1 (GeneID 116837),1,65.6,44.8,inactive
Rims1 (GeneID 116837),2,73.1,85.5,inactive
Rims1 (GeneID 116837),3,37.3,49.1,inactive
Ficd (GeneID 231630),1,71.1,62.9,inactive
Ficd (GeneID 231630),2,147,74.7,active
Ficd (GeneID 231630),3,110,98.3,inactive
Eva1b (GeneID 230752),1,60.4,47.1,inactive
Eva1b (GeneID 230752),2,60.7,33.3,inactive
Eva1b (GeneID 230752),3,58.2,68.3,inactive
Mtrf1 (GeneID 211253),1,118,73.8,inactive
Mtrf1 (GeneID 211253),2,91.8,67.8,inactive
Mtrf1 (GeneID 211253),3,82.1,77.8,inactive
Prcp (GeneID 72461),1,152,110,active
Prcp (GeneID 72461),2,55,50.9,inactive
Prcp (GeneID 72461),3,66.2,72.9,inactive
Or12e13 (GeneID 258220),1,67.9,59.8,inactive
Or12e13 (GeneID 258220),2,46,38.2,inactive
Or12e13 (GeneID 258220),3,82.2,43.9,inactive
Kcnd2 (GeneID 16508),1,112,98.6,inactive
Kcnd2 (GeneID 16508),2,92.1,45.9,inactive
Kcnd2 (GeneID 16508),3,44.2,67.2,inactive
Cyb5rl (GeneID 230582),1,66.5,77.7,inactive
Cyb5rl (GeneID 230582),2,31.3,52.6,inactive
Cyb5rl (GeneID 230582),3,57.1,58,inactive
Tshz2 (GeneID 228911),1,28,35.6,inactive
Tshz2 (GeneID 228911),2,50.4,44.8,inactive
Tshz2 (GeneID 228911),3,77.8,86.7,inactive
Stab1 (GeneID 192187),1,95,121,inactive
Stab1 (GeneID 192187),2,66.8,62.9,inactive
Ifna12 (GeneID 242519),1,92.6,64.9,inactive
Ifna12 (GeneID 242519),2,29.1,21.2,inactive
Ifna12 (GeneID 242519),3,63.7,48.4,inactive
Cdhr5 (GeneID 72040),1,67.7,73.8,inactive
Cdhr5 (GeneID 72040),2,77.1,59,inactive
Cdhr5 (GeneID 72040),3,67.3,64.9,inactive
Plaa (GeneID 18786),1,66.6,50.6,inactive
Plaa (GeneID 18786),2,70.5,76.4,inactive
Plaa (GeneID 18786),3,82.8,115,inactive
Adipor1 (GeneID 72674),1,87.4,58,inactive
Adipor1 (GeneID 72674),2,66.5,59.1,inactive
Adipor1 (GeneID 72674),3,84.7,67.8,inactive
Sh3bgrl2 (GeneID 212531),1,40.3,84.5,inactive
Sh3bgrl2 (GeneID 212531),2,11.7,15.3,inactive
Sh3bgrl2 (GeneID 212531),3,77.4,85.4,inactive
Zfp772 (GeneID 232855),1,33.9,44.1,inactive
Zfp772 (GeneID 232855),2,94.5,73.9,inactive
Zfp772 (GeneID 232855),3,98,84.5,inactive
AI837181 (GeneID 107242),1,71.7,76.6,inactive
AI837181 (GeneID 107242),2,124,124,active
AI837181 (GeneID 107242),3,95.6,94.6,inactive
Cntn1 (GeneID 12805),1,63.5,57.6,inactive
Cntn1 (GeneID 12805),2,104,89.1,inactive
Or2t1 (GeneID 18330),1,37.6,52.5,inactive
Or2t1 (GeneID 18330),2,109,68.5,inactive
Or2t1 (GeneID 18330),3,49.4,99,inactive
Ncr1 (GeneID 17086),1,95,66.5,inactive
Ncr1 (GeneID 17086),2,42.2,58.3,inactive
Ncr1 (GeneID 17086),3,96.9,92.3,inactive
Crygb (GeneID 12965),1,86.1,82.6,inactive
Crygb (GeneID 12965),2,59.3,60.1,inactive
Crygb (GeneID 12965),3,131,134,active
Igdcc4 (GeneID 56741),1,58,26.5,inactive
Igdcc4 (GeneID 56741),2,70,69.1,inactive
Igdcc4 (GeneID 56741),3,82.2,98.1,inactive
Son (GeneID 20658),1,82.7,45.4,inactive
Son (GeneID 20658),2,30.8,23.7,inactive
Son (GeneID 20658),3,68.9,61.6,inactive

Already shown: an excerpt of the list.
Target gene,reagent,"GFP, % of control","viability (ATP), % of control",activity call
Rims1 (GeneID 116837),2,73.1,85.5,inactive
Rims1 (GeneID 116837),3,37.3,49.1,inactive
Ficd (GeneID 231630),1,71.1,62.9,inactive
Ficd (GeneID 231630),2,147,74.7,active
Ficd (GeneID 231630),3,110,98.3,inactive
Eva1b (GeneID 230752),1,60.4,47.1,inactive
Eva1b (GeneID 230752),2,60.7,33.3,inactive
Eva1b (GeneID 230752),3,58.2,68.3,inactive
